In publication PMC9379416:
No constants are given. Whether binding was seen depends on the method and setting. In cells and extracts the contact can be indirect. These calls come from enrichment with a bait or labelling near it, and not all partners need be listed.

By UniProt entry, the sequences of proteins in these tests, tags left out.
UniProt Q9BUJ2: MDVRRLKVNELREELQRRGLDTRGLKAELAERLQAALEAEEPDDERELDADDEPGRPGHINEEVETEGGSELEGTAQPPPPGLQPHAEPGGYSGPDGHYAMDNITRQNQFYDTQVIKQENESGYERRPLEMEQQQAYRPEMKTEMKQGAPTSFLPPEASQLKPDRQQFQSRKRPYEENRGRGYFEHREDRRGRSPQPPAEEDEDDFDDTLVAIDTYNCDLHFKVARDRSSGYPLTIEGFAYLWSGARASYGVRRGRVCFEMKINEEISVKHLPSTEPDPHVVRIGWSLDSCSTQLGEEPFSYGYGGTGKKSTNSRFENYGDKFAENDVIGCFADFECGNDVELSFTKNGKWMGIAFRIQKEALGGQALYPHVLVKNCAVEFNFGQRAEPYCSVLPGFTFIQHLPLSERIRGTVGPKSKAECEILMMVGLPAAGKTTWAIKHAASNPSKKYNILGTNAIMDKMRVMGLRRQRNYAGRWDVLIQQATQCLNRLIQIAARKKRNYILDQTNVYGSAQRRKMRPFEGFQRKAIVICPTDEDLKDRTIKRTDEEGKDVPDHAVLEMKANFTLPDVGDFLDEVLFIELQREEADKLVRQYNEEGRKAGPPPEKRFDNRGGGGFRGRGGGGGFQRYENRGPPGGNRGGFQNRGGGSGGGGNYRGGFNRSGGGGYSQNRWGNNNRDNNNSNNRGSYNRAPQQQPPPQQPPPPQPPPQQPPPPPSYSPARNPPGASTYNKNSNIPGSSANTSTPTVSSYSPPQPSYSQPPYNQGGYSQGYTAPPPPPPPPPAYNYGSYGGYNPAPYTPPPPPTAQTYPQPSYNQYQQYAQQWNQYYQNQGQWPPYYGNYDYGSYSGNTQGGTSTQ

B1: rRNA processing protein 1 homolog B (RRP1B) (protein, UniProt Q14684 1-758)
chain: MAPAMQPAEIQFAQRLASSEKGIRDRAVKKLRQYISVKTQRETGGFSQEELLKIWKGLFYCMWVQDEPLLQEELANTIAQLVHAVNNSAAQHLFIQTFWQTMNREWKGIDRLRLDKYYMLIRLVLRQSFEVLKRNGWEESRIKVFLDVLMKEVLCPESQSPNGVRFHFIDIYLDELSKVGGKELLADQNLKFIDPFCKIAAKTKDHTLVQTIARGVFEAIVDQSPFVPEETMEEQKTKVGDGDLSAEEIPENEVSLRRAVSKKKTALGKNHSRKDGLSDERGRDDCGTFEDTGPLLQFDYKAVADRLLEMTSRKNTPHFNRKRLSKLIKKFQDLSEGSSISQLSFAEDISADEDDQILSQGKHKKKGNKLLEKTNLEKEKGSRVFCVEEEDSESSLQKRRRKKKKKHHLQPENPGPGGAAPSLEQNRGREPEASGLKALKARVAEPGAEATSSTGEESGSEHPPAVPMHNKRKRPRKKSPRAHREMLESAVLPPEDMSQSGPSGSHPQGPRGSPTGGAQLLKRKRKLGVVPVNGSGLSTPAWPPLQQEGPPTGPAEGANSHTTLPQRRRLQKKKAGPGSLELCGLPSQKTASLKKRKKMRVMSNLVEHNGVLESEAGQPQALGSSGTCSSLKKQKLRAESDFVKFDTPFLPKPLFFRRAKSSTATHPPGPAVQLNKTPSSSKKVTFGLNRNMTAEFKKTDKSILVSPTGPSRVAFDPEQKPLHGVLKTPTSSPASSPLVAKKPLTTTPRRRPRAMDFF
B2: ribosome biogenesis protein BRX1 homolog (BXDC2/BRX1) (protein, UniProt Q8TDN6 1-353)
chain: MAATKRKRRGGFAVQAKKPKRNEIDAEPPAKRHATAEEVEEEERDRIPGPVCKGKWKNKERILIFSSRGINFRTRHLMQDLRMLMPHSKADTKMDRKDKLFVINEVCEMKNCNKCIYFEAKKKQDLYMWLSNSPHGPSAKFLVQNIHTLAELKMTGNCLKGSRPLLSFDPAFDELPHYALLKELLIQIFSTPRYHPKSQPFVDHVFTFTILDNRIWFRNFQIIEEDAALVEIGPRFVLNLIKIFQGSFGGPTLYENPHYQSPNMHRRVIRSITAAKYREKQQVKDVQKLRKKEPKTLLPHDPTADVFVTPAEEKPIEIQWVKPEPKVDLKARKKRIYKRQRKMKQRMDSGKTK
B3: RNA-binding protein 28 (RBM28) (protein, UniProt Q9NW13 1-759)
chain: MAGLTLFVGRLPPSARSEQLEELFSQVGPVKQCFVVTEKGSKACRGFGYVTFSMLEDVQRALKEITTFEGCKINVTVAKKKLRNKTKEKGKNENSECPKKEPKAKKAKVADKKARLIIRNLSFKCSEDDLKTVFAQFGAVLEVNIPRKPDGKMRGFGFVQFKNLLEAGKALKGMNMKEIKGRTVAVDWAVAKDKYKDTQSVSAIGEEKSHESKHQESVKKKGREEEDMEEEENDDDDDDDDEEDGVFDDEDEEEENIESKVTKPVQIQKRAVKRPAPAKSSDHSEEDSDLEESDSIDDGEELAQSDTSTEEQEDKAVQVSNKKKRKLPSDVNEGKTVFIRNLSFDSEEEELGELLQQFGELKYVRIVLHPDTEHSKGCAFAQFMTQEAAQKCLLAASPENEAGGLKLDGRQLKVDLAVTRDEAAKLQTTKVKKPTGTRNLYLAREGLIRAGTKAAEGVSAADMAKRERFELLKHQKLKDQNIFVSRTRLCLHNLPKAVDDKQLRKLLLSATSGEKGVRIKECRVMRDLKGVHGNMKGQSLGYAFAEFQEHEHALKALRLINNNPEIFGPLKRPIVEFSLEDRRKLKMKELRIQRSLQKMRSKPATGEPQKGQPEPAKDQQQKAAQHHTEEQSKVPPEQKRKAGSTSWTGFQTKAEVEQVELPDGKKRRKVLALPSHRGPKIRLRDKGKVKPVHPKKPKPQINQWKQEKQQLSSEQVSRKKAKGNKTETRFNQLVEQYKQKLLGPSKGAPLAKRSKWFDS
B4: nuclear fragile X mental retardation-interacting protein 2 (NUFIP2) (protein, UniProt Q7Z417 1-695)
chain: MEEKPGQPQPQHHHSHHHPHHHPQQQQQQPHHHHHYYFYNHSHNHHHHHHHQQPHQYLQHGAEGSPKAQPKPLKHEQKHTLQQHQETPKKKTGYGELNGNAGEREISLKNLSSDEATNPISRVLNGNQQVVDTSLKQTVKANTFGKAGIKTKNFIQKNSMDKKNGKSYENKSGENQSVDKSDTIPIPNGVVTNNSGYITNGYMGKGADNDGSGSESGYTTPKKRKARRNSAKGCENLNIVQDKIMQQETSVPTLKQGLETFKPDYSEQKGNRVDGSKPIWKYETGPGGTSRGKPAVGDMLRKSSDSKPGVSSKKFDDRPKGKHASAVASKEDSWTLFKPPPVFPVDNSSAKIVPKISYASKVKENLNKTIQNSSVSPTSSSSSSSSTGETQTQSSSRLSQVPMSALKSVTSANFSNGPVLAGTDGNVYPPGGQPLLTTAANTLTPISSGTDSVLQDMSLTSAAVEQIKTSLFIYPSNMQTMLLSTAQVDLPSQTDQQNLGDIFQNQWGLSFINEPSAGPETVTGKSSEHKVMEVTFQGEYPATLVSQGAEIIPSGTEHPVFPKAYELEKRTSPQVLGSILKSGTTSESGALSLEPSHIGDLQKADTSSQGALVFLSKDYEIESQNPLASPTNTLLGSAKEQRYQRGLERNDSWGSFDLRAAIVYHTKEMESIWNLQKQDPKRIITYNEAMDSPDQ

Target: FLAG-hnRNP UL1 (heterogeneous nuclear ribonucleoprotein U-like protein 1), transiently expressed (human) (UniProt Q9BUJ2)
Assay: affinity purification with mass spectrometry; anti-FLAG immunoprecipitation from whole-cell protein extract of HEK293T cells 24 h after transfection with FLAG-hnRNP UL1; nontransfected cells as control; precipitated proteins identified by mass spectrometry

binding, binds:
B1, B2, B3, B4
